# Test results taken from US5187071A, “Method for the selective control of weeds, pests, and microbes” (priority 1988, dated 1993).
# Chains of the proteins cited; added tags and fusions are not shown.
# UniProt Q5F6N4, entry or part of it: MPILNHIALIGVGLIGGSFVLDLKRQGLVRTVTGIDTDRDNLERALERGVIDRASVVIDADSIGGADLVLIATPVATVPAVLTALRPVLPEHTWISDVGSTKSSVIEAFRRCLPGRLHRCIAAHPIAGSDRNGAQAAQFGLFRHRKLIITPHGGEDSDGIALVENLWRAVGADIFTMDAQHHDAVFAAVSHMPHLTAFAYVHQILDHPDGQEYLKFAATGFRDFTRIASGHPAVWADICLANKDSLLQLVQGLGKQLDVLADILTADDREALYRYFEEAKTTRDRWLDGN
# At least one structure is not confirmed: it was looked up by name or label, or the drawing left a doubt.
# Target: prephenate/arogenate dehydrogenase (Neisseria gonorrhoeae, UniProt Q5F6N4)
# Experiment: inhibition of prephenate dehydrogenase in N. gonorrhoeae
# Assay type: biochemical
smiles,measurement,value
O=C(O)C(=O)Cc1ccc(O)cc1 [4-hydroxyphenylpyruvate],inhibition of prephenate dehydrogenase,unusual inhibition
